Reference: patent US9284543B2, “Neutral active soluble truncated PH20 polypeptides and uses thereof” (Halozyme, Inc., priority 2008, dated 2016)

B1: SPAM1-PSTL: C-terminally truncated human PH20, precursor 489 aa (SEQ ID NO:12), mature 454 aa (SEQ ID NO:64) (protein, listed as Homo sapiens)
chain 1: MGVLKFKHIFFRSFVKSSGVSQIVFTFLLIPCCLTLNFRAPPVIPNVPFLWAWNAPSEFCLGKFDEPLDMSLFSFIGSPRINATGQGVTIFYVDRLGYYPYIDSITGVTVNGGIPQKISLQDHLDKAKKDITFYMPVDNLGMAVIDWEEWRPTWARNWKPKDVYKNRSIELVQQQNVQLSLTEATEKAKQEFEKAGKDFLVETIKLGKLLRPNHLWGYYLFPDCYNHHYKKPGYNGSCFNVEIKRNDDLSWLWNESTALYPSIYLNTQQSPVAATLYVRNRVREAIRVSKIPDAKSPLPVFAYTRIVFTDQVLKFLSQDELVYTFGETVALGASGIVIWGTLSIMRSMKSCLLLDNYMETILNPYIINVTLAAKMCSQVLCQEQGVCIRKNWNSSDYLHLNPDNFAIQLEKGGKFTVRGKPTLEDLEQFSEKFYCSCYSTLSCKEKADVKDTDAVDVCIADGVCIDAFLKPPMETEEPQIFYNASPSTL
chain 2: LNFRAPPVIPNVPFLWAWNAPSEFCLGKFDEPLDMSLFSFIGSPRINATGQGVTIFYVDRLGYYPYIDSITGVTVNGGIPQKISLQDHLDKAKKDITFYMPVDNLGMAVIDWEEWRPTWARNWKPKDVYKNRSIELVQQQNVQLSLTEATEKAKQEFEKAGKDFLVETIKLGKLLRPNHLWGYYLFPDCYNHHYKKPGYNGSCFNVEIKRNDDLSWLWNESTALYPSIYLNTQQSPVAATLYVRNRVREAIRVSKIPDAKSPLPVFAYTRIVFTDQVLKFLSQDELVYTFGETVALGASGIVIWGTLSIMRSMKSCLLLDNYMETILNPYIINVTLAAKMCSQVLCQEQGVCIRKNWNSSDYLHLNPDNFAIQLEKGGKFTVRGKPTLEDLEQFSEKFYCSCYSTLSCKEKADVKDTDAVDVCIADGVCIDAFLKPPMETEEPQIFYNASPSTL
modifications: HuPH20 precursor 1-489; mature HuPH20 36-489
B2: SPAM1-ASPS: C-terminally truncated human PH20, precursor 487 aa (SEQ ID NO:14), mature 452 aa (SEQ ID NO:66) (protein, listed as Homo sapiens)
chain: MGVLKFKHIFFRSFVKSSGVSQIVFTFLLIPCCLTLNFRAPPVIPNVPFLWAWNAPSEFCLGKFDEPLDMSLFSFIGSPRINATGQGVTIFYVDRLGYYPYIDSITGVTVNGGIPQKISLQDHLDKAKKDITFYMPVDNLGMAVIDWEEWRPTWARNWKPKDVYKNRSIELVQQQNVQLSLTEATEKAKQEFEKAGKDFLVETIKLGKLLRPNHLWGYYLFPDCYNHHYKKPGYNGSCFNVEIKRNDDLSWLWNESTALYPSIYLNTQQSPVAATLYVRNRVREAIRVSKIPDAKSPLPVFAYTRIVFTDQVLKFLSQDELVYTFGETVALGASGIVIWGTLSIMRSMKSCLLLDNYMETILNPYIINVTLAAKMCSQVLCQEQGVCIRKNWNSSDYLHLNPDNFAIQLEKGGKFTVRGKPTLEDLEQFSEKFYCSCYSTLSCKEKADVKDTDAVDVCIADGVCIDAFLKPPMETEEPQIFYNASPS
modifications: HuPH20 precursor 1-487
B3: SPAM1-YNAS: C-terminally truncated human PH20, precursor 485 aa (SEQ ID NO:15), mature 450 aa (SEQ ID NO:67) (protein, listed as Homo sapiens)
chain: LNFRAPPVIPNVPFLWAWNAPSEFCLGKFDEPLDMSLFSFIGSPRINATGQGVTIFYVDRLGYYPYIDSITGVTVNGGIPQKISLQDHLDKAKKDITFYMPVDNLGMAVIDWEEWRPTWARNWKPKDVYKNRSIELVQQQNVQLSLTEATEKAKQEFEKAGKDFLVETIKLGKLLRPNHLWGYYLFPDCYNHHYKKPGYNGSCFNVEIKRNDDLSWLWNESTALYPSIYLNTQQSPVAATLYVRNRVREAIRVSKIPDAKSPLPVFAYTRIVFTDQVLKFLSQDELVYTFGETVALGASGIVIWGTLSIMRSMKSCLLLDNYMETILNPYIINVTLAAKMCSQVLCQEQGVCIRKNWNSSDYLHLNPDNFAIQLEKGGKFTVRGKPTLEDLEQFSEKFYCSCYSTLSCKEKADVKDTDAVDVCIADGVCIDAFLKPPMETEEPQIFYNAS
modifications: mature HuPH20 36-485
B4: SPAM1-FYNA: C-terminally truncated human PH20, precursor 484 aa (SEQ ID NO:16), mature 449 aa (SEQ ID NO:68) (protein, listed as Homo sapiens)
chain 1: MGVLKFKHIFFRSFVKSSGVSQIVFTFLLIPCCLTLNFRAPPVIPNVPFLWAWNAPSEFCLGKFDEPLDMSLFSFIGSPRINATGQGVTIFYVDRLGYYPYIDSITGVTVNGGIPQKISLQDHLDKAKKDITFYMPVDNLGMAVIDWEEWRPTWARNWKPKDVYKNRSIELVQQQNVQLSLTEATEKAKQEFEKAGKDFLVETIKLGKLLRPNHLWGYYLFPDCYNHHYKKPGYNGSCFNVEIKRNDDLSWLWNESTALYPSIYLNTQQSPVAATLYVRNRVREAIRVSKIPDAKSPLPVFAYTRIVFTDQVLKFLSQDELVYTFGETVALGASGIVIWGTLSIMRSMKSCLLLDNYMETILNPYIINVTLAAKMCSQVLCQEQGVCIRKNWNSSDYLHLNPDNFAIQLEKGGKFTVRGKPTLEDLEQFSEKFYCSCYSTLSCKEKADVKDTDAVDVCIADGVCIDAFLKPPMETEEPQIFYNA
chain 2: LNFRAPPVIPNVPFLWAWNAPSEFCLGKFDEPLDMSLFSFIGSPRINATGQGVTIFYVDRLGYYPYIDSITGVTVNGGIPQKISLQDHLDKAKKDITFYMPVDNLGMAVIDWEEWRPTWARNWKPKDVYKNRSIELVQQQNVQLSLTEATEKAKQEFEKAGKDFLVETIKLGKLLRPNHLWGYYLFPDCYNHHYKKPGYNGSCFNVEIKRNDDLSWLWNESTALYPSIYLNTQQSPVAATLYVRNRVREAIRVSKIPDAKSPLPVFAYTRIVFTDQVLKFLSQDELVYTFGETVALGASGIVIWGTLSIMRSMKSCLLLDNYMETILNPYIINVTLAAKMCSQVLCQEQGVCIRKNWNSSDYLHLNPDNFAIQLEKGGKFTVRGKPTLEDLEQFSEKFYCSCYSTLSCKEKADVKDTDAVDVCIADGVCIDAFLKPPMETEEPQIFYNA
modifications: HuPH20 precursor 1-484; Mature HuPH20 36-484
B5: SPAM1-IFYN: C-terminally truncated human PH20, precursor 483 aa (SEQ ID NO:17), mature 448 aa (SEQ ID NO:69) (protein, listed as Homo sapiens)
chain 1: MGVLKFKHIFFRSFVKSSGVSQIVFTFLLIPCCLTLNFRAPPVIPNVPFLWAWNAPSEFCLGKFDEPLDMSLFSFIGSPRINATGQGVTIFYVDRLGYYPYIDSITGVTVNGGIPQKISLQDHLDKAKKDITFYMPVDNLGMAVIDWEEWRPTWARNWKPKDVYKNRSIELVQQQNVQLSLTEATEKAKQEFEKAGKDFLVETIKLGKLLRPNHLWGYYLFPDCYNHHYKKPGYNGSCFNVEIKRNDDLSWLWNESTALYPSIYLNTQQSPVAATLYVRNRVREAIRVSKIPDAKSPLPVFAYTRIVFTDQVLKFLSQDELVYTFGETVALGASGIVIWGTLSIMRSMKSCLLLDNYMETILNPYIINVTLAAKMCSQVLCQEQGVCIRKNWNSSDYLHLNPDNFAIQLEKGGKFTVRGKPTLEDLEQFSEKFYCSCYSTLSCKEKADVKDTDAVDVCIADGVCIDAFLKPPMETEEPQIFYN
chain 2: LNFRAPPVIPNVPFLWAWNAPSEFCLGKFDEPLDMSLFSFIGSPRINATGQGVTIFYVDRLGYYPYIDSITGVTVNGGIPQKISLQDHLDKAKKDITFYMPVDNLGMAVIDWEEWRPTWARNWKPKDVYKNRSIELVQQQNVQLSLTEATEKAKQEFEKAGKDFLVETIKLGKLLRPNHLWGYYLFPDCYNHHYKKPGYNGSCFNVEIKRNDDLSWLWNESTALYPSIYLNTQQSPVAATLYVRNRVREAIRVSKIPDAKSPLPVFAYTRIVFTDQVLKFLSQDELVYTFGETVALGASGIVIWGTLSIMRSMKSCLLLDNYMETILNPYIINVTLAAKMCSQVLCQEQGVCIRKNWNSSDYLHLNPDNFAIQLEKGGKFTVRGKPTLEDLEQFSEKFYCSCYSTLSCKEKADVKDTDAVDVCIADGVCIDAFLKPPMETEEPQIFYN
modifications: HuPH20 precursor 1-483; Mature HuPH20 36-483

These molecules were tested on CHO-S cells (assay: Western blot analysis of PH20 expression in media and cells after transient expression). Details: band at approximately 66 kDa.
Format: cell-based, Chinese Hamster
In short: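 PH20 expression and solubility were judged by anti-PH20 Western blot of non-reduced media and cell fractions, with expression shown by a ~66 kDa band. Samples came from CHO-S cells transiently transfected (GeneJuice) with mutant PH20-HZ24 DNA and cultured 48-72 h. GPI-anchored mutants were cleaved with PI-PLC to release soluble protein.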

Protein Expression, YES:
B1
B2
B3
B4
B5
